# Measured values: US7855309B2, “Pesticide benzyloxy- and phenetyl-substituted phenyl-amidine derivatives” (Bayer CropScience AG, priority 2005, dated 2010)
# Some of these results come from one statement about several compounds together.
# Columns and labels:
# Botrytis cinerea = experiment: In vivo protective test on Botrytis cinerea (beans); details: 500 ppm of active ingredient, lesion size 2 days after inoculation
# [1] = test system: Puccinia recondita f. Sp. tritici; experiment: In vivo preventive test on Puccinia recondita f. sp. tritici (wheat brown rust); details: 1000 ppm of active ingredient, evaluated 10 days after inoculation
# [2] = test system: Erysiphe graminis f.sp. hordei; experiment: In vivo preventive test on Erysiphe graminis (powdery mildew on barley); details: 1000 ppm of active ingredient, evaluated 7 days after inoculation
# Alternaria solani = experiment: In vivo protective test on Alternaria solani (leaf spot of tomato); details: 500 ppm of active ingredient, evaluated 7 days after inoculation
# Podosphaera leucotricha = experiment: In vivo protective test on Podosphaera leucotricha (apples); details: 100 ppm of active ingredient, evaluated 10 days after inoculation
# Sphaerotheca fuliginea = experiment: In vivo protective test on Sphaerotheca fuliginea (cucumbers); details: 100 ppm of active ingredient, evaluated 7 days after inoculation
Compound,efficacy (Botrytis cinerea),efficacy [1],efficacy [2],other results
Cc1ccc(COc2cc(C)c(N=CN3CCCCC3)cc2C)cc1C [Compound 108],≥ 70%,,,
CCN(C)C=Nc1cc(C)c(OCc2ccc3nsnc3c2)cc1C [Compound 27],,≥ 70%,≥ 70%,
CCN(C)C=Nc1cc(C)c(OCc2ccc(Cl)c(Cl)c2)cc1C [Compound 13],,≥ 70%,≥ 70%,efficacy (Alternaria solani): ≥ 70%
CCN(C)C=Nc1cc(C)c(OCc2ccccc2OC(F)(F)F)cc1C [Compound 16],,≥ 70%,≥ 70%,efficacy (Podosphaera leucotricha): ≥ 70%; efficacy (Sphaerotheca fuliginea): ≥ 70%
CCN(C)C=Nc1cc(C)c(OCc2ccccc2OC(F)F)cc1C [Compound 26],,≥ 70%,≥ 70%,
CCN(C)C=Nc1cc(C)c(OCc2ccc(C#N)cc2)cc1C [Compound 10],,≥ 70%,≥ 70%,efficacy (Alternaria solani): ≥ 70%
Cc1cc(OCc2cccc(OC(F)(F)F)c2)c(C)cc1N=CN1CCCCC1 [Compound 113],≥ 70%,,,
CCN(C)C=Nc1cc(C)c(OCc2ccc(F)c(F)c2)cc1C [Compound 15],,≥ 70%,≥ 70%,
CCN(C)C=Nc1cc(C)c(OC(C)c2cccc(Cl)c2)cc1C (stereo not drawn) [Compound 30],,≥ 70%,≥ 70%,
Cc1cc(OCc2ccc(OC(F)F)cc2)c(C)cc1N=CN1CCCCC1 [Compound 125],≥ 70%,,,
CCN(C)C=Nc1cc(C)c(CCc2cc(C(F)(F)F)cc(C(F)(F)F)c2)cc1C [Compound 35],,,,efficacy (Alternaria solani): ≥ 70%; efficacy (Sphaerotheca fuliginea): ≥ 70%
Cc1cc(C)cc(COc2cc(C)c(N=CN3CCCCC3)cc2C)c1 [Compound 99],≥ 70%,,,
CCN(C)C=Nc1cc(C)c(OCc2ccc(Oc3ccc(Cl)cc3)cc2)cc1C [Compound 73],≥ 70%,,,efficacy (Sphaerotheca fuliginea): ≥ 70%
CCN(C)C=Nc1cc(C)c(OCc2cccc(Cl)c2)cc1C [Compound 7],,≥ 70%,≥ 70%,efficacy (Alternaria solani): ≥ 70%
Cc1cc(OCc2cc3c(cc2Cl)OCO3)c(C)cc1N=CN1CCCCC1 [Compound 92],≥ 70%,,,efficacy (Alternaria solani): ≥ 70%
Cc1cc(OCc2ccccc2C(F)(F)F)c(C)cc1N=CN1CCCCC1 [Compound 123],≥ 70%,,,
CCN(C)C=Nc1cc(C)c(OCc2cc3c(cc2Cl)OCO3)cc1C [Compound 5],,≥ 70%,≥ 70%,
Cc1cc(OCc2ccc(C(F)(F)F)cc2)c(C)cc1N=CN1CCCCC1 [Compound 126],≥ 70%,,,
Cc1cc(OCc2ccc(C(C)(C)C)cc2)c(C)cc1N=CN1CCCCC1 [Compound 95],≥ 70%,,,
CCN(C)C=Nc1cc(C)c(OCc2ccccc2C(F)(F)F)cc1C [Compound 34],,≥ 70%,≥ 70%,efficacy (Alternaria solani): ≥ 70%; efficacy (Sphaerotheca fuliginea): ≥ 70%
CCN(C)C=Nc1cc(C)c(OCc2ccccc2C)cc1C [Compound 66],,≥ 70%,≥ 70%,
Cc1cc(OCc2ccccc2F)c(C)cc1N=CN1CCCCC1 [Compound 100],,,,efficacy (Alternaria solani): ≥ 70%
Cc1cc(OC(C)c2ccc(F)cc2)c(C)cc1N=CN1CCCCC1 (racemic) [Compound 93],≥ 70%,,,

Compound,efficacy (Botrytis cinerea),efficacy [1],efficacy [2],other results
CCN(C)C=Nc1cc(C)c(OCc2cc(C(F)(F)F)cc(C(F)(F)F)c2)cc1C [Compound 21],,≥ 70%,≥ 70%,
CCN(C)C=Nc1cc(C)c(OCc2cccc(C(=O)OC(C)(C)C)c2)cc1C [Compound 54],≥ 70%,,,
CCN(C)C=Nc1cc(C)c(CCc2ccccc2Cl)cc1C [Compound 37],,,,efficacy (Sphaerotheca fuliginea): ≥ 70%
CCN(C)C=Nc1cc(C)c(OCc2ccc(OC(F)F)cc2)cc1C [Compound 24],,≥ 70%,≥ 70%,
CCN(C)C=Nc1cc(C)c(OCc2ccc(C(F)(F)F)cc2Cl)cc1C [Compound 25],,≥ 70%,≥ 70%,efficacy (Podosphaera leucotricha): ≥ 70%
CCN(C)C=Nc1cc(C)c(OCc2cc(C)cc(C)c2)cc1C [Compound 88],≥ 70%,,,efficacy (Alternaria solani): ≥ 70%
CCN(C)C=Nc1cc(C)c(OCc2ccccc2Cl)cc1C [Compound 33],,≥ 70%,≥ 70%,efficacy (Alternaria solani): ≥ 70%; efficacy (Sphaerotheca fuliginea): ≥ 70%
CCN(C)C=Nc1cc(C)c(OCc2c(Cl)cccc2Cl)cc1C [Compound 3],,≥ 70%,≥ 70%,efficacy (Podosphaera leucotricha): ≥ 70%; efficacy (Sphaerotheca fuliginea): ≥ 70%
CCN(C)C=Nc1cc(C)c(OCc2ccc(C)c(C)c2)cc1C [Compound 64],,≥ 70%,≥ 70%,efficacy (Alternaria solani): ≥ 70%; efficacy (Sphaerotheca fuliginea): ≥ 70%
CCN(C)C=Nc1cc(C)c(CCc2cccc(C(F)(F)F)c2)cc1C [Compound 43],,,,efficacy (Podosphaera leucotricha): ≥ 70%; efficacy (Sphaerotheca fuliginea): ≥ 70%
Cc1cc(OCc2c(F)cccc2Cl)c(C)cc1N=CN1CCCCC1 [Compound 101],≥ 70%,,,
Cc1cc(OCc2cccc(C(F)(F)F)c2)c(C)cc1N=CN1CCCCC1 [Compound 96],≥ 70%,,,
Cc1cc(OC(C)c2cccc(Cl)c2)c(C)cc1N=CN1CCCCC1 (racemic) [Compound 131],≥ 70%,,,
Cc1cc(OCc2cc(Cl)cc(Cl)c2)c(C)cc1N=CN1CCCCC1 [Compound 90],≥ 70%,,,
CCN(C)C=Nc1cc(C)c(OCc2cccc(OC(F)(F)F)c2)cc1C [Compound 17],,≥ 70%,≥ 70%,efficacy (Podosphaera leucotricha): ≥ 70%; efficacy (Sphaerotheca fuliginea): ≥ 70%
CCN(C)C=Nc1cc(C)c(OC(C)c2ccccc2Cl)cc1C (stereo not drawn) [Compound 29],,≥ 70%,≥ 70%,
CCN(C)C=Nc1cc(C)c(OC(C)c2ccc(Cl)cc2)cc1C (stereo not drawn) [Compound 31],,≥ 70%,≥ 70%,efficacy (Alternaria solani): ≥ 70%
CCN(C)C=Nc1cc(C)c(OC(C)c2ccc(F)cc2)cc1C (stereo not drawn) [Compound 6],,≥ 70%,≥ 70%,
Cc1cc(OCc2ccc(C#N)cc2)c(C)cc1N=CN1CCCCC1 [Compound 98],≥ 70%,,,
Cc1ccc(COc2cc(C)c(N=CN3CCCCC3)cc2C)cc1 [Compound 124],≥ 70%,,,
CCN(C)C=Nc1cc(C)c(OCc2cccc(C)c2C)cc1C [Compound 89],≥ 70%,,,
CCN(C)C=Nc1cc(C)c(OCc2ccc(Br)cc2)cc1C [Compound 70],,≥ 70%,≥ 70%,
CCN(C)C=Nc1cc(C)c(OCc2ccccc2I)cc1C [Compound 87],≥ 70%,,,

Compound,efficacy (Botrytis cinerea),efficacy [1],efficacy [2],other results
Cc1cc(OCc2ccc(Cl)cc2)c(C)cc1N=CN1CCCCC1 [Compound 105],≥ 70%,,,efficacy (Alternaria solani): ≥ 70%
Cc1cc(OCc2ccc(Cl)c(Cl)c2)c(C)cc1N=CN1CCCCC1 [Compound 107],≥ 70%,,,efficacy (Alternaria solani): ≥ 70%
CCN(C)C=Nc1cc(C)c(OCc2c(F)cccc2Cl)cc1C [Compound 61],,≥ 70%,≥ 70%,
CCN(C)C=Nc1cc(C)c(OCc2cc(C(F)(F)F)ccc2Cl)cc1C [Compound 20],,≥ 70%,,efficacy (Sphaerotheca fuliginea): ≥ 70%
CCN(C)C=Nc1cc(C)c(OCc2cccc(OCC(F)(F)F)c2)cc1C [Compound 49],≥ 70%,,,
Cc1cc(OCc2cc(C(F)(F)F)ccc2Cl)c(C)cc1N=CN1CCCCC1 [Compound 119],≥ 70%,,,
Cc1cc(OCc2ccc(C(F)(F)F)cc2)c(C)cc1N=CN1CCCCC1 [Compound 109],,,,efficacy (Alternaria solani): ≥ 70%
CCN(C)C=Nc1cc(C)c(OCc2ccc(F)c(OC)c2)cc1C [Compound 22],,≥ 70%,≥ 70%,
Cc1cc(OCc2ccccc2OC(F)F)c(C)cc1N=CN1CCCCC1 [Compound 127],≥ 70%,,,
CCN(C)C=Nc1cc(C)c(OCc2cccc(Br)c2)cc1C [Compound 65],,≥ 70%,≥ 70%,
CCN(C)C=Nc1cc(C)c(OCc2ccc3ccccc3c2)cc1C [Compound 62],,≥ 70%,≥ 70%,
CCN(C)C=Nc1cc(C)c(OCc2ccc(Oc3ccc(SC)cc3)cc2)cc1C [Compound 72],≥ 70%,,,
CCN(C)C=Nc1cc(C)c(CCc2ccc(F)cc2)cc1C [Compound 42],,,,efficacy (Sphaerotheca fuliginea): ≥ 70%
CCN(C)C=Nc1cc(C)c(OCc2cc(Cl)cc(C(F)(F)F)c2)cc1C [Compound 19],,≥ 70%,≥ 70%,
CCN(C)C=Nc1cc(C)c(OCc2c(C)cc(C)cc2C)cc1C [Compound 86],≥ 70%,,,
CCN(C)C=Nc1cc(C)c(OCc2ccc(Cl)c(C(F)(F)F)c2)cc1C [Compound 28],,≥ 70%,≥ 70%,
CON=Cc1ccc(COc2cc(C)c(N=CN3CCCCC3)cc2C)cc1 [Compound 103],≥ 70%,,,efficacy (Alternaria solani): ≥ 70%
CCN(C)C=Nc1cc(C)c(OCc2cccc(C=NOC)c2)cc1C [Compound 12],≥ 70%,≥ 70%,≥ 70%,efficacy (Alternaria solani): ≥ 70%; efficacy (Sphaerotheca fuliginea): ≥ 70%
CCN(C)C=Nc1cc(C)c(OCc2ccc(C(C)C)cc2)cc1C [Compound 82],≥ 70%,,,
Cc1cc(OCc2ccccc2OC(F)(F)F)c(C)cc1N=CN1CCCCC1 [Compound 111],≥ 70%,,,
CCN(C)C=Nc1cc(C)c(OCc2ccccc2F)cc1C [Compound 11],,≥ 70%,≥ 70%,efficacy (Alternaria solani): ≥ 70%
CCN(C)C=Nc1cc(C)c(CCc2ccc(C)cc2)cc1C [Compound 41],,,,efficacy (Podosphaera leucotricha): ≥ 70%; efficacy (Sphaerotheca fuliginea): ≥ 70%
CCN(C)C=Nc1cc(C)c(OCc2ccc(F)cc2)cc1C [Compound 2],,≥ 70%,≥ 70%,efficacy (Sphaerotheca fuliginea): ≥ 70%
